The values that follow are results of earlier work, collected in patent US12622975B2, “Peptide-conjugated prodrugs” (priority 2019, dated 2026).

This data set has as its system E. coli K-12. The following applies: E. coli K-12, literature values; cited from earlier work.

Values after ≈ are worked out from the molar mass of the structure shown.

Take `O=C(O)c1cn(C2CC2)c2cc(N3CCNCC3)c(F)cc2c1=O` [ciprofloxacin]: the minimum inhibitory concentration (MIC) was 0.01 µg/mL (≈ 0.0302 µM).

For orientation: MIC means the lowest concentration found to suppress growth.
